# Assay results taken from PubChem BioAssay AID504467 (National Center for Advancing Translational Sciences (NCATS), 2011).
# Among all 330,000 compounds or so, about 7,700 (2.3%) were called active. The inconclusive results got no clear call from the source; some entries with a clear call stand among them for comparison. Calls follow the shape of the dose curve; as a rule, active = well fitted inhibition curve with a large enough effect; inconclusive = small, poorly fitted or top-dose-only effect, or effect the other way; inactive = flat fitted curve, though single readings scatter. Potencies of inconclusive entries are doubtful fits and often do not repeat.
# Experiment: qHTS screen for small molecules that inhibit ELG1-dependent DNA repair in human embryonic kidney (HEK293T) cells expressing luciferase-tagged ELG1; also: nearly all actives have a fitted effect of over 55% in size
# Conditions: HEK293T ELG1-luciferase reporter, luminescence, 16 h, DNA damage induced by 5-fluorouridine; series mostly up to 46.1 µM
# Summary of the method: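 Reporter activity after DNA damage by 5-fluorouridine is monitored. Compound-treated cells incubate 16 hr at 37 °C, then ONE-Glo is added for 30 min before luminescence reading.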
# Potency is read from the fitted curve at half-maximal effect.
row,Compound,Potency
1,O=C(NCCN1CCOCC1)c1cc(-c2ccc(F)cc2)on1,"inconclusive: 29.1 µM [activator, single point]"
2,CCCCCCSc1cccc(-c2nc3cc(C)ccn3c2NC2CCCCC2)c1,"inconclusive: 15.8 µM [inhibitor, single point]"
3,CC(NC(=O)C1CCCN1S(=O)(=O)c1cccc2nsnc12)c1ccccc1 (configuration not stated),inactive
4,CN(C)S(=O)(=O)c1ccc(N2CCOCC2)c(C(=O)NCc2ccc3c(c2)OCO3)c1,"inconclusive: 11.2 µM [inhibitor, single point]"
5,CCOC(=O)c1c(-c2ccccc2)c2cc(OC)ccc2n1CCCN(C)C,"inconclusive: 20.6 µM [inhibitor, single point]"
6,O=C1CN(C(=O)COC(=O)c2cccc(OCc3ccccc3)c2)c2ccccc2N1,"inconclusive: 9.2 µM [activator, partial curve, poor fit]"
7,CC1CCCN(Cc2cccc(Oc3ccccc3)c2)C1 (configuration not stated),inactive
8,NC1=NC(c2ccc(Cl)cc2)n2c(nc3ccccc32)N1 (configuration not stated),"inconclusive: 29.1 µM [activator, partial curve, poor fit]"
9,CCOc1ccc(CCN2C(=O)C3C4C=CC(C4)C3C2=O)cc1OCC (configuration not stated),"inconclusive: 18.4 µM [inhibitor, single point]"
10,CCCCc1ccc(NC2=NCC(=O)N2CCc2ccccc2)cc1,"inconclusive: 29.1 µM [inhibitor, partial curve, poor fit]"
11,Cc1ccc(N2CCN(/N=C/c3cccnc3)CC2)cc1,"inconclusive: 16.4 µM [inhibitor, partial curve]"
12,CCN(Cc1ccccc1)c1ccc(/C=N/NS(=O)(=O)c2cccc([N+](=O)[O-])c2)cc1,inactive
13,COc1ccccc1NC(=O)N1CCCC(c2nc3c(nnn3Cc3ccc(C)cc3)c(=O)[nH]2)C1 (configuration not stated),"inconclusive: 23.1 µM [inhibitor, single point]"
14,CCC1=C(OC(=O)N(CC)CC)N2C(=O)OC(=NCC(=O)OC)[C@]2(C)[C@H]2C1=CC[C@H]1C(=O)NC(=O)[C@H]12,inactive
15,Cc1ccc(C)c(CNS(=O)(=O)c2ccc3c(c2)C(C)(C)C(=O)N3C)c1,"inconclusive: 9.2 µM [activator, partial curve]"
16,CCOC(=O)c1c(NC(=O)/C=C/c2ccc(C)o2)sc(C)c1C,inactive
17,O=S(=O)(c1ccc(NC(=S)NN=C(C2CC2)C2CC2)cc1)N1CCOCC1,inactive
18,Cn1cc(C(=O)c2ccc(Cl)cc2)cc1-c1nc2ccccc2n1C,"inconclusive: 23.1 µM [inhibitor, partial curve]"
19,O=C(NN=Cc1ccccc1OC(F)F)c1cccc(S(=O)(=O)N2CCCC2)c1,"inconclusive: 20.6 µM [inhibitor, partial curve, poor fit]"
20,COc1cccc(CNC(=O)C2(C)Oc3ccccc3NC2=O)c1 (configuration not stated),"inconclusive: 29.1 µM [activator, single point]"
21,COc1ccc(N(C(=O)c2ccncc2)S(=O)(=O)c2ccc(F)cc2)cc1,inactive
22,COC(=O)c1cccc([N+](=O)[O-])c1CN1CCCC(C(N)=O)C1 (configuration not stated),inactive
23,CCn1c(CNC(=O)c2ccccc2Cl)cc2ccccc21,"inconclusive: 23.1 µM [activator, single point]"
24,Cn1c(=O)[nH]c(=O)c2c1nc(NC1CCCCC1)n2Cc1ccccc1,inactive

# Ordered by SMILES length (largest number first): some entries from above
row,Compound,Potency
21,COc1ccc(N(C(=O)c2ccncc2)S(=O)(=O)c2ccc(F)cc2)cc1,inactive
18,Cn1cc(C(=O)c2ccc(Cl)cc2)cc1-c1nc2ccccc2n1C,"inconclusive: 23.1 µM [inhibitor, partial curve]"
1,O=C(NCCN1CCOCC1)c1cc(-c2ccc(F)cc2)on1,"inconclusive: 29.1 µM [activator, single point]"

# (list continues)

row,Compound,Potency
1,Cc1ccc(-c2csc3ncnc(Oc4cccc5ccc(C)nc45)c23)cc1,inactive
2,CC(C)(C)CN1C(N)=NC[C@H]1Cc1ccc(O)cc1,inactive
3,Cc1ccc(C(=O)NCCN2CCOCC2)cc1Cl,"inconclusive: 25.9 µM [activator, single point]"
4,O=C(CSC1=NCCS1)NC(NC(=O)CSC1=NCCS1)c1ccccc1,inactive
5,C/C(=N/NC(=O)c1cccs1)c1cccs1,"inconclusive: 13 µM [activator, partial curve]"
6,O=C(c1ccco1)N1CCN(Cc2nnc(-c3cccc(Cl)c3)o2)CC1,inactive
7,C(=N\Nc1nc2ccccc2s1)/c1ccccn1,"inconclusive: 0.0517 µM [activator, full curve]"
8,COc1cc(-c2nc3ccc4ccccc4c3c3c2CCC3)cc(OC)c1OC,"inconclusive: 29.1 µM [inhibitor, single point]"
9,CN1/C(=C\C(=O)COC(=O)Cn2nnc(-c3ccccc3)n2)C(C)(C)c2ccccc21,inactive
10,COC(=O)C1C2C=CC3(CN(Cc4ccco4)C(=O)C13)O2 (configuration not stated),inactive
11,CCCCNC(=S)NC(=O)c1ccc(Cl)cc1Cl,"inconclusive: 29.1 µM [activator, single point]"
12,O=C(c1ccco1)N1CCN(c2ccc(F)cc2)CC1,"inconclusive: 20.6 µM [activator, single point]"
13,COc1ccc(-c2ccc(SCC(=O)NCc3ccco3)nn2)cc1,"inconclusive: 18.4 µM [activator, partial curve]"
14,COc1ccc(COc2ccccc2C(=O)Nc2ccccn2)cc1[N+](=O)[O-],inactive
15,CCN(CC(=O)Nc1ccccc1C(F)(F)F)C(=O)CCSc1ccc(F)cc1,inactive
16,O=C1OCCC1Sc1nnc(-c2ccccc2Cl)n1Cc1ccccc1 (configuration not stated),inactive
17,Nn1c(=O)c2ccccc2n2c(SCc3ccccc3)nnc12,"inconclusive: 32.6 µM [activator, partial curve, poor fit]"
18,CCNC(=O)NC(=O)C(C)OC(=O)CNS(=O)(=O)c1c(Cl)cc(Br)cc1Cl (configuration not stated),inactive
19,COc1ccc(NS(=O)(=O)c2ccc(-c3cnc(C4CC4)o3)cc2)cc1OC,active: 1.83 µM
20,CCOc1ccc(NC(=O)C2CC(=O)N(CC)C(=Nc3ccc4c(c3)OCO4)S2)cc1 (configuration not stated),"inconclusive: 16.4 µM [inhibitor, single point]"
21,Cn1cc(/C=C2\SC(=S)N(N3CCOCC3)C2=O)c2ccccc21,"inconclusive: 23.1 µM [activator, partial curve, poor fit]"
22,O=C(c1cccc(C(F)(F)F)c1)N1CCOc2ccccc21,inactive
23,Cc1ccc(C)c(OCCC(=O)OCC(=O)NC2CCS(=O)(=O)C2)c1 (configuration not stated),inactive
